Patent US5073624 (dated 1991)
Square brackets hold non-standard residues; d marks the D form. Ends that are not written are not given here. d2Nal = N[C@H](Cc1ccc2ccccc2c1)C(=O)O

Assay: general procedure: Boc solid-phase peptide synthesis; Benzhydrylamine polystyrene resin (Bachem, Inc.)
Conditions: whole synthesis, scale 0.5 mmole

Ac-[d2Nal][dF][dF]SY[dR]FRP[dA]
isolated mass: 117 mg
